Results taken from US20100242135A1.
These are yes or no findings as the source states them, for the method shown. For some of these results: Binding seen in cells or lysates may run through a third protein. Some results given as binding are weak or reduced against the parent protein; the word gives no strength. For some of these results: Tags and fused reporters may be left off the sequences shown.

Protein sequences, listed by entry. Tags and fused reporters are not part of them. Lines headed by an entry give the natural chain unless they say otherwise; changes in a name come on top.
UniProt P04386: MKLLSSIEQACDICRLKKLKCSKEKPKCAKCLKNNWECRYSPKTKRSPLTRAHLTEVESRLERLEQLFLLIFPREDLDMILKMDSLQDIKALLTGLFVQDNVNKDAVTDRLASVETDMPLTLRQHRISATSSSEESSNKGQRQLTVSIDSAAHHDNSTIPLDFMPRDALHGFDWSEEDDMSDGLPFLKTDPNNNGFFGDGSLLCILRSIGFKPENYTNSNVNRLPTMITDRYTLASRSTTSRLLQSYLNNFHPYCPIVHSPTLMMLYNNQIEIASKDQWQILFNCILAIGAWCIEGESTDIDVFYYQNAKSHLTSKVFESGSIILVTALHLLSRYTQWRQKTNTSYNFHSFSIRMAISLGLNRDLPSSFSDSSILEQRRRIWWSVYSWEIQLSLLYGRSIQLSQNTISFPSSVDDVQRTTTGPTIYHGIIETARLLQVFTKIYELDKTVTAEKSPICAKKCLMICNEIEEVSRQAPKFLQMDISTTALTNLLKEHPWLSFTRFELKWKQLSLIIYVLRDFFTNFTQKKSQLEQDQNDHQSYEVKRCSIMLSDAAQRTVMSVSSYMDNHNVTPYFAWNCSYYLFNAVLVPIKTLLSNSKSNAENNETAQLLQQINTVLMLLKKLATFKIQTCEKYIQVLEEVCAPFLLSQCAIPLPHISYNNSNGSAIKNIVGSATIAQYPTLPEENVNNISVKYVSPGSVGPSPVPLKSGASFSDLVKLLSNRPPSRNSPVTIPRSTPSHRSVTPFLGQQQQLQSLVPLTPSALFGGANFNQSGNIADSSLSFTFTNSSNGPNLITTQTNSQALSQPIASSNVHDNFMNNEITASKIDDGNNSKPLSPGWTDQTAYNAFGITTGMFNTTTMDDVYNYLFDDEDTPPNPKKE

Experiments:
[1] = target: T1, EIN2-CEND, yeast two-hybrid construct (EIN2:GAL4 DNA-binding domain fusion) (Arabidopsis) (UniProt P04386+Q9S814); assay: directed yeast two-hybrid
[2] = target: T2, EIN2-CEND5, yeast two-hybrid construct (Arabidopsis) (UniProt P04386+Q9S814); assay: yeast two-hybrid (the sentence runs on into paragraph 134, where 'ETP2' stands)
[3] = target: T1, EIN2-CEND, yeast two-hybrid construct (EIN2:GAL4 DNA-binding domain fusion) (Arabidopsis); assay: yeast two-hybrid, growth on selective plates
[4] = target: T2, EIN2-CEND5, yeast two-hybrid construct (Arabidopsis); assay: yeast two-hybrid
[5] = target: T3, GST-EIN2-CEND fusion protein (Arabidopsis) (UniProt Q9S814); assay: GST pull-down, anti-HA western blot
T3 sequence (looked up): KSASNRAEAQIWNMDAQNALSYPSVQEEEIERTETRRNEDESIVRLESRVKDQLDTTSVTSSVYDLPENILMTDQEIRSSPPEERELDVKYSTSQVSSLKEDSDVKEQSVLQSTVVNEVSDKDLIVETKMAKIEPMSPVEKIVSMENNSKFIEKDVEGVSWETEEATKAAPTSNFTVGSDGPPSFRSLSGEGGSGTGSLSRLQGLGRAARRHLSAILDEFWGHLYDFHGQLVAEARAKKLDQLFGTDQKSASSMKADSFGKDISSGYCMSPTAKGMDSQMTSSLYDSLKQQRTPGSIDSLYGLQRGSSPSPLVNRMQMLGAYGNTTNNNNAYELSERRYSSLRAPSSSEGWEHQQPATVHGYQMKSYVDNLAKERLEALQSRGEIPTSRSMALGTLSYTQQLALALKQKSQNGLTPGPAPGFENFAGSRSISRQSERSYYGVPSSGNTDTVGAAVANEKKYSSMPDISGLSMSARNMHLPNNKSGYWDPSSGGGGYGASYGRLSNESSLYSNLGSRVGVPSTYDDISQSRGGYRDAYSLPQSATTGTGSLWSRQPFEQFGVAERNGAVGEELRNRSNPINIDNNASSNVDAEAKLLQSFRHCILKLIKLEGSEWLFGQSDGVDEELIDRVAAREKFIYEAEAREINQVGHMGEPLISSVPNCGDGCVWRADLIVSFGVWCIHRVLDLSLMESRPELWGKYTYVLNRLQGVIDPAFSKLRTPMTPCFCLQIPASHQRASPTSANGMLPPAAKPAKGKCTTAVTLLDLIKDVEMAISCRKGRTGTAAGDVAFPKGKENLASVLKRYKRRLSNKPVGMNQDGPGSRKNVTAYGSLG

[6] = target: T3, GST-EIN2-CEND fusion protein (Arabidopsis); assay: GST pull-down
[7] = target: T3, GST-EIN2-CEND fusion protein (Arabidopsis); assay: GST pull-down of in vitro translated HA-tagged protein, anti-HA western blot
[8] = target: T1, EIN2-CEND, yeast two-hybrid construct (EIN2:GAL4 DNA-binding domain fusion) (Arabidopsis); assay: yeast two-hybrid screen and directed yeast two-hybrid

Measured: binding

B1: ETP2 (EIN2 … PROTEIN2), yeast two-hybrid construct (protein)
chain: MKTIQEQLPNDLVEEILCRVPATSLRRLRSTCKAWNRLFKGDRILASKHFEKSAKQFRSLSLRNDYRIFPISFNLHGNSPSLELKSELIDPHSKNSAAPFEISRVIHCEGLLLCSSQLDESRVVVWNPLTGETRWIRTGDFRQKGRSFDVGYYYQKDKRSWIKSYKLLCYYRGTKYFEIYDFDSDSWRILDDIIAPRGSIGYSELSVSLKGNTYWFAKGVTEERPRTISLLKFDFYTEKSVPVLLPYQSRRLFQASSLSVVREDKLSVLLQLDQSSKTEIWVTNVIDETTKGAVSWTKVLALDLSPHLQIGNDGSFFLGEDKKVVMFCEKLIDENKVKDMVYIVGEDNVVTEVGFGVDEMDGCRAVILNYVPSLVQIERAGGNRKRGH
binds: [1] | [2] | [3] | [4]

B2: HA-tagged ETP2, in vitro translated (protein, not shown: small tags and cut ends)
chain: MKTIQEQLPNDLVEEILCRVPATSLRRLRSTCKAWNRLFKGDRILASKHFEKSAKQFRSLSLRNDYRIFPISFNLHGNSPSLELKSELIDPHSKNSAAPFEISRVIHCEGLLLCSSQLDESRVVVWNPLTGETRWIRTGDFRQKGRSFDVGYYYQKDKRSWIKSYKLLCYYRGTKYFEIYDFDSDSWRILDDIIAPRGSIGYSELSVSLKGNTYWFAKGVTEERPRTISLLKFDFYTEKSVPVLLPYQSRRLFQASSLSVVREDKLSVLLQLDQSSKTEIWVTNVIDETTKGAVSWTKVLALDLSPHLQIGNDGSFFLGEDKKVVMFCEKLIDENKVKDMVYIVGEDNVVTEVGFGVDEMDGCRAVILNYVPSLVQIERAGGNRKRGH
binds: [5] | [6] | [7]

B3: ETP1 (EIN2 … PROTEIN1), yeast two-hybrid construct (protein)
chain: MTIPDLCNDLVDEILCRVPARNLKRLRSTSKRWNRLFKDDRRFAREHMHKAPKEYLPLMLTSEYRICPVSINLQGDVPSVVLKRELSLPDPDYSHQFDIGRVFHCDGLLVCNHVGKNPRYGSKIVVWNPLTGQTRWIEAGYRWKEYEVRFVLGYCYQQDENNSCSKKIYKILCFYPNGQDTEIYELNYSDRWTRTIPDGDLTPGWTLIYSEQTVSMNGNLYLFASEKSKPHLGVSLLRFDFSTEKSSLCVTLPYQRPRYEILSISAVRGGENLSLLLQLDFESKTEIWVTNKIDDTTTKGAAVSWTKVLAFDLSPDLQLFSEEVNFLLDEDKKVAVCCERWLEPQEHHRYQCRREYKITDKIYILGEDNKVDEVGSGEGEATDSLEGISQVILNYAPSLVQIEQAGGGKTKRGDD
binds: [3] | [8] | [4]

B4: HA-tagged ETP1, in vitro translated (protein, not shown: small tags and cut ends)
chain: MTIPDLCNDLVDEILCRVPARNLKRLRSTSKRWNRLFKDDRRFAREHMHKAPKEYLPLMLTSEYRICPVSINLQGDVPSVVLKRELSLPDPDYSHQFDIGRVFHCDGLLVCNHVGKNPRYGSKIVVWNPLTGQTRWIEAGYRWKEYEVRFVLGYCYQQDENNSCSKKIYKILCFYPNGQDTEIYELNYSDRWTRTIPDGDLTPGWTLIYSEQTVSMNGNLYLFASEKSKPHLGVSLLRFDFSTEKSSLCVTLPYQRPRYEILSISAVRGGENLSLLLQLDFESKTEIWVTNKIDDTTTKGAAVSWTKVLAFDLSPDLQLFSEEVNFLLDEDKKVAVCCERWLEPQEHHRYQCRREYKITDKIYILGEDNKVDEVGSGEGEATDSLEGISQVILNYAPSLVQIEQAGGGKTKRGDD
binds: [5] | [6] | [7]
